The record followed here is article PMC4703367.

Protein sequences, listed by entry. Tags and fused reporters are not part of them. Lines headed by an entry give the natural chain unless they say otherwise; changes in a name come on top. Residues count along the entry.
UniProt P07948, residues 1-230: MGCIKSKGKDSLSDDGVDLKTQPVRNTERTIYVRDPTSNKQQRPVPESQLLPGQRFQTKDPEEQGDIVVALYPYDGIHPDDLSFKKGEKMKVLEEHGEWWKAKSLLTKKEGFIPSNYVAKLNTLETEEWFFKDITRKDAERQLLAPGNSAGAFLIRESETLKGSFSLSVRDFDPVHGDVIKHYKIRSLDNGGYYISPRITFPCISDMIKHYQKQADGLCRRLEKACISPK
UniProt P25911: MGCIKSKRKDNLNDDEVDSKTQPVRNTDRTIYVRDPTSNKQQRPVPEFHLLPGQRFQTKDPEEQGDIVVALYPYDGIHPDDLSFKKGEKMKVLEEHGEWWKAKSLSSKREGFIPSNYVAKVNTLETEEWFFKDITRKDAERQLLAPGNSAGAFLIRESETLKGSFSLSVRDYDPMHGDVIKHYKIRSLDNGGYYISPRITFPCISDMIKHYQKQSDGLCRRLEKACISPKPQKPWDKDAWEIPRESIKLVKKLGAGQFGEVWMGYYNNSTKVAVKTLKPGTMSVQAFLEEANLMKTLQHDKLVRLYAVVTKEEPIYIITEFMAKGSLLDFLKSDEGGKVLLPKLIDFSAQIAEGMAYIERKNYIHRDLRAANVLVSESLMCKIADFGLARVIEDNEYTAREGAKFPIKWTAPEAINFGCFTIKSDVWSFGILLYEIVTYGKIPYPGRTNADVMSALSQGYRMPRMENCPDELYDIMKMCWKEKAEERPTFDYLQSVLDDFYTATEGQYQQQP
UniProt Q9CQY1: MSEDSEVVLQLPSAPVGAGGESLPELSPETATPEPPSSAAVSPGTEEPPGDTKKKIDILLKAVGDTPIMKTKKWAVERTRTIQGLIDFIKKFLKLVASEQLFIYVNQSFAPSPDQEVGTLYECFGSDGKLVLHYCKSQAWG
UniProt P18760: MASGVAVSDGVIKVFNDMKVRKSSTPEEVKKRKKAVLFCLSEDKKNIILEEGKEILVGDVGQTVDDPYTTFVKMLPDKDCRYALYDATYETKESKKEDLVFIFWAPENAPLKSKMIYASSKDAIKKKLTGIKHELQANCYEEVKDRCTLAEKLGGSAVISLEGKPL

Assay [1] has as its target GST-Lyn 1–230 (UniProt P07948). The assay can be described thus: pull-down; GST-Lyn fragments incubated with lysates of primary mouse AM infected with Pa; immunoblotting; only the target purified.
Assay [2] addresses GST-Lyn 1–230 (UniProt P07948). The assay can be described thus: pull-down; GST-Lyn fragments on immobilized glutathione agarose beads incubated with whole cell lysates of MH-S cells infected with PAO1 (MOI = 10, 1 h); immunoblotting; only the target purified. (In general: Immunoblotting shows a protein as a band on a membrane.)
The target in assay [3] is Lyn (mouse (endogenous in MH-S)) (UniProt P25911). The assay can be described thus: co-IP; lysates of MH-S cells infected with PAO1 (MOI = 10, 1 h); Protein A/G-agarose beads with the related antibody (Lyn antibody named for Fig 6K and S6J), immunoblotting; Fig 6K with Ctrl or Lyn siRNA.

No constants are given. Whether binding was seen depends on the method and setting. Binding seen in cells or lysates may run through a third protein. Some binding calls cover weakened binding; strength is not graded here.

Regarding “Atg12-Atg5 (from UniProt Q9CQY1 1-141; Q99J83 1-275) (complex)”, the binding entry (with GST-Lyn 1–230 [1]; with GST-Lyn 1–230 [2]; in assay [3]) was “binds” throughout.

Regarding Cofilin-1 (from UniProt P18760 1-166), the binding result in assay [3] is “binds”.
